Test results: patent US20230103583A1 (NORTHWESTERN UNIVERSITY, published 2023)
No constants are given. Whether binding was seen depends on the method and setting. In cells and extracts the contact can be indirect. Some binding calls cover weakened binding; strength is not graded here. Values belong to the binder of their own block, whether it stands above or below them.

Amino acid sequences for entries named in this document (tags omitted). Residues count along the entry.
UniProt Q02763, residues 23-1124: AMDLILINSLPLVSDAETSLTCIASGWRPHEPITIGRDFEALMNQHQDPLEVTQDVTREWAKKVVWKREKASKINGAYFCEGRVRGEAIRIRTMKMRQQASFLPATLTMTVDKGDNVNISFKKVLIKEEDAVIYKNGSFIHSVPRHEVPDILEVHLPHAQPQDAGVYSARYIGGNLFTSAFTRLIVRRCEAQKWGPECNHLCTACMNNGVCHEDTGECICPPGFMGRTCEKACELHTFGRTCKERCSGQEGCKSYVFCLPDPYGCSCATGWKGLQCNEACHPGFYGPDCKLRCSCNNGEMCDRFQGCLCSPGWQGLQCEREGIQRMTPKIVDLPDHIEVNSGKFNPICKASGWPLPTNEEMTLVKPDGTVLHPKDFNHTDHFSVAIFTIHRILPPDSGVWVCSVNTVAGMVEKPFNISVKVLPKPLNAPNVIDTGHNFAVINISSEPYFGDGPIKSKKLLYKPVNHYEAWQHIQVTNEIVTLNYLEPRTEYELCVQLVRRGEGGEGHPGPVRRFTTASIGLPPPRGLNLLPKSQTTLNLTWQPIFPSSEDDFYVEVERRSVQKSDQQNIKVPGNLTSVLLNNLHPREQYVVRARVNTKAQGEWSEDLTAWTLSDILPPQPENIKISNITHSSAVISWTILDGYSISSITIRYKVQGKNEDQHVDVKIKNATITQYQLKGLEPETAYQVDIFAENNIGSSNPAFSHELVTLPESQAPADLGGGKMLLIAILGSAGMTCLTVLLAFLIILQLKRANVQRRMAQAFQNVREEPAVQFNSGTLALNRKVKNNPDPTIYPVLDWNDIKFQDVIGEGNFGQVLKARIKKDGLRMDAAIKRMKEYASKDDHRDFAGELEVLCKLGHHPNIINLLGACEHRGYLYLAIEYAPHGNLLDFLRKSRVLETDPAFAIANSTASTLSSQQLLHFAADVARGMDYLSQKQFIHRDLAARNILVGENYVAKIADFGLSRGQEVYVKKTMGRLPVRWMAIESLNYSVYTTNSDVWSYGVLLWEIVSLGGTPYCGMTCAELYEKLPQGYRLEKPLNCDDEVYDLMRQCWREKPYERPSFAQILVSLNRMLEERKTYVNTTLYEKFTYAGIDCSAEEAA

Molecular target: Tie2 receptor on HUVEC (human, UniProt Q02763 23-1124)
Assay: summary of Example 3 (co-IP and HUVEC treatment)

- binding: binds
B1: ANG1-C4BP (ligand)
chain: KPFRDCADVYQAGFNKSGIYTIYINNMPEPKKVFCNMDVNGGGWTVIQHREDGSLDFQRGWKEYKMGFGNPSGEYWLGNEFIFAITSQRQYMLRIELMDWEGNRAYSQYDRFHIGNEKQNYRLYLKGHTGTAGKQSSLILHGADFSTKDADNDNCMCKCALMLTGGWWFDACGPSNLNGMFYTAGQNHGKLNGIKWHYFKGPSYSLRSTTMMIRPLDFGGGGSETPEGCEQVLTGKRLMQCLPNPEDVKMALEVYKLSLEIEQLELQRDSARQSTLDKELHHHHHH

- binding: binds
B2: C4BP-ANG1 (ligand)
chain: ETPEGCEQVLTGKRLMQCLPNPEDVKMALEVYKLSLEIEQLELQRDSARQSTLDKELGGGGSKPFRDCADVYQAGFNKSGIYTIYINNMPEPKKVFCNMDVNGGGWTVIQHREDGSLDFQRGWKEYKMGFGNPSGEYWLGNEFIFAITSQRQYMLRIELMDWEGNRAYSQYDRFHIGNEKQNYRLYLKGHTGTAGKQSSLILHGADFSTKDADNDNCMCKCALMLTGGWWFDACGPSNLNGMFYTAGQNHGKLNGIKWHYFKGPSYSLRSTTMMIRPLDFHHHHHH
